Reference: the supplement of paper PMC9015667
Structures can show the parent of a compound that is named as a salt. This is one part of the list. Single values are uncertain, as repeats are few or missing.

What was measured:
Experiment in all cases: reduction in cell viability relative to untreated/vehicle; higher = more growth inhibition
Conditions in all cases: 200 nM; 72 h
M229P = test system: M229P (parental melanoma line)
M229R = test system: M229R (matched melanoma line resistant to BRAF inhibitors)
M238P = test system: M238P (parental melanoma line)
M238R = test system: M238R (matched melanoma line resistant to BRAF inhibitors)
M249P = test system: M249P (parental melanoma line)
M249R = test system: M249R (matched melanoma line resistant to BRAF inhibitors)
UACC62P = test system: UACC62P (parental melanoma line)
UACC62R = test system: UACC62R (matched melanoma line resistant to BRAF inhibitors)

Row | Structure (SMILES) | reduction in cell viability (M229P) [%] | reduction in cell viability (M229R) [%] | reduction in cell viability (M238P) [%] | reduction in cell viability (M238R) [%] | reduction in cell viability (M249P) [%] | reduction in cell viability (M249R) [%] | reduction in cell viability (UACC62P) [%] | reduction in cell viability (UACC62R) [%]
1 | Oc1cccc(-c2nc(N3CCOCC3)c3oc4ncccc4c3n2)c1 | 20.6 | 38.5 | 69.5 | 60 | 38.2 | 30.9 | 50.5 | 32.5
2 | Cc1cccc(-c2[nH]ncc2-c2ccc3ncccc3n2)n1 | < 0 | < 0 | < 0 | < 0 | < 0 | < 0 | < 0 | < 0
3 | CN(C)C[C@@H]1CCn2cc(c3ccccc32)C2=C(C(=O)NC2=O)c2cn(c3ccccc23)CCO1 [Ruboxistaurin mesilate] | < 0 | < 0 | 6.22 | < 0 | 5.1 | < 0 | 25.2 | < 0
4 | OCCn1cc(-c2cnc3nnn(Cc4ccc5ncccc5c4)c3n2)cn1 | < 0 | < 0 | < 0 | < 0 | < 0 | < 0 | 1.54 | < 0
5 | Cc1cccc2c1CC[C@H](CN1CCC(c3c(Cl)cccc3Cl)CC1)C[C@@H]2O | < 0 | < 0 | < 0 | < 0 | < 0 | < 0 | < 0 | < 0
6 | CC(C)C[C@H](NC(=O)[C@@H](NC(=O)c1cccc(-c2ccccc2)n1)[C@@H](C)O)B(O)O [Delanzomib] | 90.9 | 83.6 | 89.6 | 92.6 | 91.6 | 90.5 | 89.4 | 84.8
7 | Cc1oc(=O)oc1CN1CCN(c2cc3c(cc2F)c(=O)c(C(=O)O)c2n3C(C)S2)CC1 (centres undefined) [Prulifloxacin] | < 0 | < 0 | < 0 | < 0 | < 0 | < 0 | < 0 | < 0
8 | CCOC(=O)c1c(C)n(C)c2ccc(O)cc12 [Mecarbinate] | < 0 | < 0 | < 0 | < 0 | < 0 | < 0 | < 0 | < 0
9 | CC(C)(C)C(=O)OCOP(=O)(COCCn1cnc2c(N)ncnc21)OCOC(=O)C(C)(C)C [Adefovir dipivoxil] | < 0 | < 0 | < 0 | < 0 | < 0 | < 0 | 14.1 | 37
10 | CN[C@H](CC(C)C)C(=O)N[C@H]1C(=O)N[C@@H](CC(N)=O)C(=O)N[C@H]2C(=O)N[C@H]3C(=O)N[C@H](C(=O)N[C@H](C(=O)O)c4cc(O)cc(O)c4-c4cc3ccc4O)[C@H](O)c3ccc(c(Cl)c3)Oc3cc2cc(c3O[C@@H]2O[C@H](CO)[C@@H](O)[C@H](O)[C@H]2O[C@H]2C[C@](C)(N)[C@H](O)[C@H](C)O2)Oc2ccc(cc2Cl)[C@H]1O [Vancomycin hydrochloride] | < 0 | < 0 | < 0 | < 0 | < 0 | 1.15 | < 0 | < 0
11 | O=C1Nc2ccc(I)cc2/C1=C/c1cc(Br)c(O)c(Br)c1 | < 0 | < 0 | < 0 | < 0 | < 0 | < 0 | < 0 | < 0
12 | Cc1c(O)cccc1C(=O)N[C@@H](CSc1ccccc1)[C@H](O)CN1C[C@H]2CCCC[C@H]2C[C@H]1C(=O)NC(C)(C)C [Viracept] | < 0 | < 0 | < 0 | < 0 | < 0 | < 0 | < 0 | < 0
13 | CON(C)C(=O)N1N=C(c2cc(F)ccc2F)S[C@@]1(CCCN)c1ccccc1 | 15.5 | 28.5 | 84.5 | 69.4 | 38.3 | 24.9 | 40.5 | 77
14 | COC1=C2C[C@@H](C)C[C@H](OC)[C@H](O)[C@@H](C)/C=C(\C)[C@H](OC(N)=O)[C@@H](OC)/C=C\C=C(/C)C(=O)NC(=CC1=O)C2=O [Geldanamycin] | 26.3 | 45.7 | 51.7 | < 0 | < 0 | < 0 | 77.8 | 53.9
15 | Cc1cn([C@H]2C=C[C@@H](CO)O2)c(=O)[nH]c1=O [Stavudine] | < 0 | < 0 | < 0 | < 0 | < 0 | < 0 | < 0 | < 0
16 | CC(C(=O)O)c1ccc(-c2ccccc2)c(F)c1 (centres undefined) [Flurbiprofen] | < 0 | < 0 | < 0 | < 0 | < 0 | < 0 | 2.43 | < 0
17 | NNc1nncc2ccccc12 [Hydralazine hydrochloride] | < 0 | < 0 | < 0 | < 0 | < 0 | < 0 | < 0 | < 0
18 | O=c1ccn([C@@H]2O[C@H](CO)[C@@H](O)[C@H]2O)c(=O)[nH]1 [Uridine] | < 0 | < 0 | < 0 | < 0 | < 0 | < 0 | < 0 | < 0
19 | N=C(N)NC(=N)N1CCOCC1 [Moroxydine] | < 0 | < 0 | < 0 | < 0 | < 0 | < 0 | 8.04 | < 0
20 | OC[C@@H](O)[C@@H](O)[C@H](O)[C@H](O)CO [Mannitol] | < 0 | < 0 | < 0 | < 0 | < 0 | < 0 | < 0 | < 0
21 | Cc1cccc(CN2CCN(C(c3ccccc3)c3ccc(Cl)cc3)CC2)c1 (centres undefined) [Meclizine hydrochloride] | < 0 | < 0 | < 0 | < 0 | < 0 | 1.95 | < 0 | 9.61
22 | CN(CC(=O)N(Cc1ccc(C2CCCCC2)cc1)c1ccc(C(=O)O)c(O)c1)S(=O)(=O)c1c(F)c(F)c(F)c(F)c1F | < 0 | < 0 | < 0 | < 0 | < 0 | < 0 | 0.24 | < 0

Three compounds drawn at random from those above, as already listed:
Row | Structure (SMILES) | reduction in cell viability (M229P) [%] | reduction in cell viability (M229R) [%] | reduction in cell viability (M238P) [%] | reduction in cell viability (M238R) [%] | reduction in cell viability (M249P) [%] | reduction in cell viability (M249R) [%] | reduction in cell viability (UACC62P) [%] | reduction in cell viability (UACC62R) [%]
15 | Cc1cn([C@H]2C=C[C@@H](CO)O2)c(=O)[nH]c1=O [Stavudine] | < 0 | < 0 | < 0 | < 0 | < 0 | < 0 | < 0 | < 0
11 | O=C1Nc2ccc(I)cc2/C1=C/c1cc(Br)c(O)c(Br)c1 | < 0 | < 0 | < 0 | < 0 | < 0 | < 0 | < 0 | < 0
10 | CN[C@H](CC(C)C)C(=O)N[C@H]1C(=O)N[C@@H](CC(N)=O)C(=O)N[C@H]2C(=O)N[C@H]3C(=O)N[C@H](C(=O)N[C@H](C(=O)O)c4cc(O)cc(O)c4-c4cc3ccc4O)[C@H](O)c3ccc(c(Cl)c3)Oc3cc2cc(c3O[C@@H]2O[C@H](CO)[C@@H](O)[C@H](O)[C@H]2O[C@H]2C[C@](C)(N)[C@H](O)[C@H](C)O2)Oc2ccc(cc2Cl)[C@H]1O [Vancomycin hydrochloride] | < 0 | < 0 | < 0 | < 0 | < 0 | 1.15 | < 0 | < 0

More entries

Row | Structure (SMILES) | reduction in cell viability (M229P) [%] | reduction in cell viability (M229R) [%] | reduction in cell viability (M238P) [%] | reduction in cell viability (M238R) [%] | reduction in cell viability (M249P) [%] | reduction in cell viability (M249R) [%] | reduction in cell viability (UACC62P) [%] | reduction in cell viability (UACC62R) [%]
23 | Nc1nc2[nH]cnc2c(=S)[nH]1 [Tioguanine] | 29.6 | < 0 | < 0 | < 0 | < 0 | 24.7 | 33.4 | 40.8
24 | Cc1cc(NC(=O)Nc2ccc(N(C)C)cc2)c2cc(F)cc(F)c2n1 | < 0 | < 0 | < 0 | < 0 | < 0 | < 0 | < 0 | < 0
25 | NC(=O)c1ncn([C@@H]2O[C@H](CO)[C@@H](O)[C@H]2O)c1O [Mizoribine] | < 0 | < 0 | < 0 | < 0 | < 0 | 2.62 | < 0 | < 0
26 | O=[N+]([O-])c1ccc(Nc2ccccc2-c2ccccc2)c2nonc12 | < 0 | < 0 | < 0 | < 0 | < 0 | < 0 | < 0 | < 0
27 | COc1cnc(NS(=O)(=O)c2ccc(N)cc2)nc1 [Sulfameter] | < 0 | < 0 | < 0 | < 0 | < 0 | < 0 | < 0 | < 0
28 | C=CCNc1c(O)cc2c(O)c1C[C@@H](C)C[C@H](OC)[C@H](O)[C@@H](C)/C=C(\C)[C@H](OC(N)=O)[C@@H](OC)/C=C\C=C(/C)C(=O)N2 [Retaspimycin] | 3.85 | 10.4 | 56 | 58.6 | 18.2 | 13.1 | 74.2 | 76
29 | COc1cc2ncnc(-n3nc(-c4ccccn4)nc3N)c2cc1OC | < 0 | < 0 | < 0 | < 0 | < 0 | < 0 | < 0 | < 0
30 | CCC(=O)O[C@]1(C(=O)CO)CC[C@H]2[C@@H]3CCC4=CC(=O)CC[C@]4(C)[C@H]3CC[C@@]21C [17 alpha-propionate] | < 0 | < 0 | < 0 | < 0 | < 0 | < 0 | < 0 | < 0
31 | CN(C)c1ccc(C2Nc3ccc4ccccc4c3C3=C2C(=O)CC(C)(C)C3)cc1Br (centres undefined) | < 0 | < 0 | < 0 | < 0 | < 0 | 0.17 | < 0 | < 0
32 | COc1cc(OC)c(/C=C/S(=O)(=O)Cc2ccc(OC)c(NCC(=O)O)c2)c(OC)c1 | 22.9 | 38.2 | 69.8 | 68.7 | 56.3 | 48 | 51.3 | 84
33 | CN(C)CCc1c[nH]c2ccc(Cn3cncn3)cc12 [Rizatriptan benzoate] | < 0 | < 0 | < 0 | < 0 | 0.43 | < 0 | < 0 | < 0
34 | O=C(CCc1ccc(O)cc1)c1c(O)cc(O)cc1O[C@@H]1O[C@H](CO)[C@@H](O)[C@H](O)[C@H]1O [Phlorizin] | < 0 | < 0 | < 0 | < 0 | < 0 | < 0 | < 0 | < 0
35 | COc1cc2nc(N3CCN(C(=O)C4CCCO4)CC3)nc(N)c2cc1OC (centres undefined) [Terazosin hydrochloride] | < 0 | < 0 | < 0 | < 0 | < 0 | < 0 | < 0 | < 0
36 | Cc1cc2cc3c(C)cc(=O)oc3c(C)c2o1 [Trioxsalen] | < 0 | < 0 | < 0 | < 0 | < 0 | < 0 | < 0 | < 0
37 | COc1ccc2c(OCc3nnc4ccc(-c5ccccc5)nn34)ccnc2c1 | < 0 | < 0 | < 0 | < 0 | < 0 | < 0 | < 0 | 6.35
38 | Cc1cc(OCCCc2c(C(=O)O)n(Cc3cccnc3)c3c(-c4c(COc5ccc(N6CCN([S+](C)(=O)[O-])CC6)cc5)nn(C)c4C)cccc23)cc(C)c1Cl | < 0 | < 0 | < 0 | < 0 | < 0 | < 0 | < 0 | < 0
39 | Cn1cnc2c(F)c(Nc3ccc(Br)cc3F)c(C(=O)NOCCO)cc21 | 25.5 | < 0 | 32.8 | < 0 | 67.4 | 14.4 | 59.7 | 18.5
40 | Cc1[nH]c(=O)c(C#N)cc1-c1ccncc1 [Milrinone] | < 0 | < 0 | < 0 | < 0 | < 0 | < 0 | < 0 | < 0
41 | O=C(O)c1ccccc1C(=O)Nc1ccc(-c2ccccc2)cc1 [Kartogenin] | < 0 | < 0 | < 0 | < 0 | < 0 | < 0 | < 0 | < 0
42 | COc1cc2c(Oc3ccc4[nH]c(C)cc4c3F)ncnc2cc1OCCCN1CCCC1 [Cediranib] | < 0 | < 0 | < 0 | < 0 | < 0 | 7.13 | < 0 | < 0
43 | C[C@H]1O[C@@H](n2cc(F)c(=O)[nH]c2=O)[C@H](O)[C@@H]1O [Doxifluridine] | < 0 | < 0 | < 0 | < 0 | < 0 | < 0 | < 0 | < 0
